Test results as given in publication PMC12263876, “DDX39B K63-linked ubiquitination mediated by TRIM28 promotes NSCLC metastasis by enhancing ECAD lysosomal degradation” (Signal Transduction and Targeted Therapy, 2025).
These are yes or no findings as the source states them, for the method shown. In cells and extracts the contact can be indirect. Some results given as binding are weak or reduced against the parent protein; the word gives no strength.

Sequences of proteins named here, by UniProt entry; tags and fusion partners are left off.
UniProt Q13838: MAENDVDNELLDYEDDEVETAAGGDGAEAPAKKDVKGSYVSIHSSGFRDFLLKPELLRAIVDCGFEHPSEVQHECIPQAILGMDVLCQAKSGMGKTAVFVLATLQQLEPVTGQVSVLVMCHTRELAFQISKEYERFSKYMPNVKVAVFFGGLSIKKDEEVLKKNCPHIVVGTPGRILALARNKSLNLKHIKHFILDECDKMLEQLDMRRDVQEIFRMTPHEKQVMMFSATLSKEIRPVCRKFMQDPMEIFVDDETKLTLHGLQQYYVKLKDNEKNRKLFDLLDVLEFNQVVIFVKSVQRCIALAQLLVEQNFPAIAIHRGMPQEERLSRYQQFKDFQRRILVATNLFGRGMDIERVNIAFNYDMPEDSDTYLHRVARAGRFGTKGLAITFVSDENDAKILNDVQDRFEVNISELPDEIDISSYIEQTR
UniProt Q13263: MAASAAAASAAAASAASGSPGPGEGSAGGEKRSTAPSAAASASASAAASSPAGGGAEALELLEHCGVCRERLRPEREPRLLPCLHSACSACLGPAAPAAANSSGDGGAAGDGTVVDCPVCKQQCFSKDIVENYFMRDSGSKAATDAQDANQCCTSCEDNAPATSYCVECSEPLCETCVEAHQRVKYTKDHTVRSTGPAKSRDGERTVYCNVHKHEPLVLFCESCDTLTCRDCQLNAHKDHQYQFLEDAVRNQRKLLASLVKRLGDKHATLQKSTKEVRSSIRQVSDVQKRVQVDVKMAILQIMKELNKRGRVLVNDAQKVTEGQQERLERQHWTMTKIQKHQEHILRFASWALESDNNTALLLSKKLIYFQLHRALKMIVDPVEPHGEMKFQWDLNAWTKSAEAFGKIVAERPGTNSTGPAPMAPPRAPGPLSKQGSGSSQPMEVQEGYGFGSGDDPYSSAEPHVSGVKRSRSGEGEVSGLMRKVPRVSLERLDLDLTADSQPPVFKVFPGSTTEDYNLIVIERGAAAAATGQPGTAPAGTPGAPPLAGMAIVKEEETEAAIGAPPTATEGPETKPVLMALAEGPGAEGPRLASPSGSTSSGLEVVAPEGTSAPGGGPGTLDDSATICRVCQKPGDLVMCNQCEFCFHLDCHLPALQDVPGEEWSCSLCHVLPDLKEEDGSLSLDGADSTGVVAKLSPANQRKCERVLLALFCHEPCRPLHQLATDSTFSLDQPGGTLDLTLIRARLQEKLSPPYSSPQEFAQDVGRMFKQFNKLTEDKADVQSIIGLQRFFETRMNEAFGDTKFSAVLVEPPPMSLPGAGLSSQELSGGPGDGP

Target: DDX39B, endogenous (human (endogenous in A549 and H1299)) (UniProt Q13838)
Experiment: co-IP; co-IP from NSCLC cell lysates (A549, H1299, A549-BM) with the indicated antibodies or normal IgG overnight at 4 °C, 5 washes with TBS, Western blot; also after EGF (30 ng/ml) or TGF-β (10 ng/ml) for 72 h, and in cells overexpressing DDX39B WT, P322A or 3KR

binding: binds
Substance: TRIM28 (tripartite motif-containing 28), endogenous (from UniProt Q13263 1-835)
